In PubChem BioAssay AID1794845 (National Center for Advancing Translational Sciences (NCATS), 2023):
Out of some 6,900 compounds screened, fewer than 10 were called active. The call rests on the fitted dose curve; in most records, active means well fitted curve in the direction sought with a large enough effect; inconclusive means small, poorly fitted or top-dose-only effect, or another doubt; inactive means no such curve, though single readings can be large or run the other way. The list shows a part of the results.

The chains behind the UniProt entries cited, without tags or fusion partners. Where a name states a change or a piece, a line headed by the entry shows the natural chain unless it says otherwise.
UniProt C7C422: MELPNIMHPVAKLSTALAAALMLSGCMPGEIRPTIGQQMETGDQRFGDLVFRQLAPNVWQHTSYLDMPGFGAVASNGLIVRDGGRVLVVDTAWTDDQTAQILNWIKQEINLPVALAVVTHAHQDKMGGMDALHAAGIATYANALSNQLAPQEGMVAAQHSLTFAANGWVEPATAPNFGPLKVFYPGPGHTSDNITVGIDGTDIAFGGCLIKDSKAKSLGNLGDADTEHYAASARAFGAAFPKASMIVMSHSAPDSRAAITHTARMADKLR

target: Metallo-beta-lactamase type 2 (Klebsiella pneumoniae) (UniProt C7C422); assay: qHTS to identify inhibitors of the New Delhi Metallo-beta-lactamase (NDM): primary screen against the NCATS Gemini Collection; details: NDM-1 enzyme, meropenem hydrolysis, absorbance 300 nm; at 38.4 µM (top of the series) unless noted; further: % of control where 0% means no effect
Method in brief: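 Meropenem hydrolysis (50 uM final) by 2 nM NDM-1 read as 300 nm absorbance after 30 min, following >30 min compound–enzyme preincubation in HEPES pH 7.0 with 1 uM ZnSO4 and 0.01% Tween20.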

Activity % (negative = inhibition), inactive:
Cc1cccc2[nH]c(CN(C)C(=O)c3ccc(CCC(C)(C)O)cc3)nc12 -1.02%
O=C(N[C@H]1CCOC[C@H]1C1CCOCC1)c1ccoc1 -1.18%
COc1ccc(C(=O)N2CCC(C3CCN(S(C)(=O)=O)CC3)C2)cc1OC (stereo unspecified) 0.0866%
O=C(NC1CCCCCC1)c1cc(-c2cc(Cl)cc(Cl)c2)c2nncn2n1 19.8%
Cc1cnc(-c2ccccc2)n1C1CCN(C(=O)c2ccco2)CC1 7.9%
Cc1cnc(C(=O)N2CCCCCNC(=O)[C@@H]3CCC[C@@H]32)cn1 10%
CN(Cc1ccccc1CN1CCCC1)C(=O)C1CC2(CCNCC2)CN1C (stereo unspecified) -6.44%
CCN1CC(c2ccccc2)CC2(CCN(C(=O)c3ccon3)CC2)C1 (stereo unspecified) -4.38%
Cc1cc(C(=O)N2CCCC(C(=O)Nc3cccc(-c4cc5ccccc5[nH]4)c3)C2)nn1C (stereo unspecified) 24.3%
COC(=O)N1CCCCC12Cc1ccccc1NC2=O (stereo unspecified) 9.48% [at 57.5 µM]
O=C(C1CCCN(C2CCN(c3ncccn3)CC2)C1)N1CCOCC1 (stereo unspecified) 10.9%
Cn1ncc2c(C(=O)N3CCC(C#N)CC3)cc(-c3cc(Cl)cc(Cl)c3)nc21 25.5%
COc1ccccc1-c1cccc(CN2CCC(NC(C)=O)CC2)c1 11%
Cc1cnc(CC2CCN(C(=O)Nc3ccc4c(c3)OCCO4)C2)n1C1CC1 (stereo unspecified) 2.21%
Cc1cc(S(=O)(=O)N2CCN(C3CCN(Cc4ccccn4)C3=O)CC2)ccc1Cl (stereo unspecified) 1.41%
COc1cccc(CC(=O)N2CCC(CC3CC3)(NC(=O)c3ccccc3)CC2)c1 0.0723%
Cc1ccc(-c2noc(CCCC(=O)N3CCC(CCOc4ccccc4F)C3)n2)cc1 (stereo unspecified) 1.39%
O=C([C@@H]1C[C@H](F)CN1C(=O)c1ccc(Cl)cc1)N1CCCCC1 -1.46%
CC(=O)N1CC2(CCN(C3CCCCC3)CC2)Cc2ccccc21 -3.71%
O=S(=O)(c1ccccc1)N1CCCC(Cc2noc(-c3ccncc3)n2)C1 (stereo unspecified) 10.9%
CC1=NOC2(CCN(C(=O)c3ccccc3)C2)C1 (stereo unspecified) 2.48% [at 57.5 µM]
Cc1nc(N2CCCCC2)n(CC(=O)Nc2ccc(Br)cc2)c(=O)c1C 13.5%
CCc1ccc(NC(=O)N2CCN(C)C3(CCC(=O)N(C)CC3)C2)cc1 (stereo unspecified) -0.186%
Cc1occc1C(=O)N1CCC2(CC1)N=C(CC(C)C)NC2=O -2.45%
Cc1ccccc1OCC(=O)Nc1cccn2nc(-c3cccnc3)nc12 -4.3%
CC(C)Cc1cnc(C2CCCN(C(=O)OC(C)(C)C)C2)[nH]1 (stereo unspecified) -4.47% [at 57.5 µM]
Cc1cccc(C(=O)N2CCCC(c3noc(-c4cc5c(=O)[nH]c(C)cn5n4)n3)C2)c1 (stereo unspecified) 14.5%
Cc1nc(N2CCC(NC(=O)C3CCCCC3)CC2)cc(C(F)(F)F)n1 9.98%
C[S+](=O)([O-])CCn1ncc2cc(OCc3cccc(-c4cccc(F)c4)c3)ccc21 0.0334% [at 57.5 µM]
CCC(C)(C)C(=O)N1CCC2(CC1)N(C)C(=O)CS2(=O)=O 1.27%
O=C1NC(=NC2CCCC2)C2(CCN(Cc3cccnc3)C2)N1c1cc(F)cc(F)c1 (stereo unspecified) -6.75%
O=C(Nc1ccccc1)N1CCCC(C(=O)N2CCC(N3CCCC3=O)CC2)C1 (stereo unspecified) -7.1%
O=C(C[C@H]1NC(=O)c2ccccc2NC1=O)Nc1nc(-c2ccncc2)cs1 33.3%
O=C1NC2(CCN(Cc3cccc4ccccc34)C2)OCc2ccccc21 (stereo unspecified) 0.632%
O=C(NCc1ccc(Cl)cc1)[C@@H]1Cc2nc[nH]c2CN1Cc1cc2ccccc2o1 5.28% [at 57.5 µM]
CC[C@H]1CN(C(=O)NC2CCCCC2)CC[C@H]1CC(=O)NCc1ccco1 -0.7% [at 57.5 µM]
CC1CCCN1c1ncnc2c1CN(c1ccccc1F)C(=O)CN2C (stereo unspecified) 0.372%
COCC(=O)N1CCC(Oc2ccccc2C(=O)N(C)Cc2ncccc2C)CC1 -1.43%
CC(=O)N1CCC(Cc2ccc(C(=O)N(C)Cc3cccnc3)cc2)CC1 -8.15%
O=C1CC2CCCC(C1)N2C(=O)c1ccncc1 5.12% [at 57.5 µM]
O=C(c1nc2ccccc2[nH]1)N1CCNc2cnc(Nc3ccc(-n4ccnc4)cc3)nc2C1 44.3%
CO[C@H]1C(=O)N(C(C)C)[C@H]1C1CCN(C(=O)C(C)C)CC1 7.65%
CNC(=O)[C@@H]1C[C@@H](O)CN1C1CCN(C(=O)C2(c3ccccc3)CC2)CC1 52%
N#Cc1ccc(S(=O)(=O)N2CCC(C3CCNC3)CC2)cc1 (stereo unspecified) -1.98%
Cc1ccc2[nH]c(CN3CCC(c4cccc(C#N)c4)CC3)cc(=O)c2c1 12.4%
COCCOC1CCN(C(=O)Nc2cccc(C)c2)CC1 0.132%
COCCn1nc2n(c1=O)CCC1(CC2)CCN(C(=O)CC(C)(C)C)CC1 8.77%
COc1ccc(CNC(=O)N2CCCCC2c2nc(-c3cnccn3)n[nH]2)cc1 (stereo unspecified) -5.76%
COc1ccc(C(C)NC(=O)c2c(C)sc3ccn(C)c(=O)c23)cc1 (stereo unspecified) 2.92%
O[C@@H]1C[C@@H](c2nnc3n2CCN(C2CCCCC2)C3)N(Cc2cccnc2)C1 -11%
COc1cccc(CCC(=O)N[C@@H]2CN(c3ncccn3)C[C@H]2CO)c1 -0.556%
COc1ccc(C(=O)N2CCCC(c3nc(-c4ccccc4)no3)CCNC(=O)CC2)cn1 (stereo unspecified) -20.6%
CN(C)c1ccc(C(=O)NC[C@H]2O[C@@H](CO)[C@@H](O)[C@H]2N(C)Cc2ccccc2)cc1 8.68%
COc1cccc(CNC(=O)c2c(C)noc2-c2ccccc2OC)c1 11.5%
CCOc1ccc(C2Cn3nnc(-c4nc(-c5ccccc5OC)no4)c3CO2)cc1 (stereo unspecified) 1.39%
CC(O)CN1CC2(CCC1=O)CCN(C(=O)c1ccnn1C)CC2 (stereo unspecified) 26.6%
Cc1ncsc1C(=O)N1CCCC(C)(Cc2ccc3c(c2)OCO3)C1 (stereo unspecified) 1.09%
CCc1c(C(=O)N2CCc3c(c(C(=O)O)nn3CC3CC3)C2)csc1C 29.2%
COc1ccc(CN2CCOc3nc(-c4cccc(C(F)(F)F)c4)ncc3C2=O)cc1 24.9% [at 57.5 µM]
CC1CCN(Cc2nnnn2CC(=O)N(C)Cc2ccccn2)CC1 -0.642%
COc1cccc(N2C(=O)NC(=NC3CCCCC3)C23CCCN(CC2CCCCC2)C3)c1 (stereo unspecified) -1.1%
COCC(=O)N1CCN(c2nc3ncccc3o2)CC1 44% [at 57.5 µM]
FC(F)(F)c1ccnc(N2CC[C@H](c3nnc(-c4ccncc4)o3)C2)n1 -0.667% [at 57.5 µM]
CSc1ccccc1C(=O)N1CCN(C(C)=O)CC(O)C1 (stereo unspecified) 6.41%
Cn1c(CN2CCN3C(=O)NC[C@H]3C2)nc2ccccc21 0.7% [at 77.1 µM]
CCC1Oc2ccc(NC(=O)c3ccccc3OC(C)=O)cc2CN(Cc2ccccc2F)C1=O (stereo unspecified) 14.7%
COc1ccnc(-c2nnc3ccc(Nc4cc(OC)c(OC)c(OC)c4)nn23)c1 12.4% [at 57.5 µM]
CNCCN1C(=O)CC[C@H]2CN(Cc3cc(C4CCCCC4)no3)CC[C@H]21 17.6%
Cc1[nH]nc2c1C(c1c(F)cccc1F)C(C#N)=C(N)O2 (stereo unspecified) -1.26%
O=C1CCN(C(=O)c2ccco2)CCCC(C(=O)NCc2ccccc2)CCN1 (stereo unspecified) -0.292%
CC(C)CNC(=O)C1CCCN(c2ccnc3ccnn23)C1 (stereo unspecified) 47.7% [at 57.5 µM]
O=C(c1ccccc1)N1CCC2(CC1)C(=O)NN=C2C1CC1 1.76% [at 57.5 µM]
CC(=O)N1CCCN(Cc2nnc(C(=O)N3CCC[C@@H]3C(c3ccccc3)c3ccccc3)n2-c2ccccc2)CC1 -0.156%
O=C(c1cc[n+]([O-])cc1)N1CCC2(CCCN(CCC3CCCCC3)C2)C1 (stereo unspecified) 6.2%
Cc1ccsc1CN1CCc2[nH]nc(C(=O)N(C)C)c2C1 4.25%
C[C@@H]1CN(C(=O)c2cc(S(N)(=O)=O)ccc2F)CC[C@]1(C)O 4.6%
CCNC(=O)N1CC(C(=O)NCc2cccc(C)c2)CC(c2ccc(F)c(C)c2)C1 (stereo unspecified) -1.97%
CC(C)C(=O)N1CCC(c2nc(-c3cccnn3)no2)CC1 0.573%
CN1CCCn2nc(C(=O)N(C)Cc3nc4ccc(Cl)cc4[nH]3)cc2C1 -2.64%
CS(=O)(=O)N1CCC2(CC1)CN(C(=O)c1ccc(N)nc1)Cc1ccccc1O2 16.7%
COCC1CN(Cc2c(C)n[nH]c2C)CC12CCNCC2 (stereo unspecified) -1.59%
CC(=O)N1CCC(NCc2cccnc2Oc2ccccc2C)CC1 -8.39%
CCc1nc(-c2c3n(c(=O)n(CC(=O)Nc4cccc(C)c4)c2=O)CCCCC3)no1 -1.67%
COCCOCC(=O)N1CCC(N2C(=O)CCC2C(=O)NCc2ccccc2)CC1 (stereo unspecified) 11.3%
CC(C)c1noc(-c2cn(C3CCN(C(=O)c4ccc5ccccc5n4)C3)nn2)n1 (stereo unspecified) 4.62%
CS(=O)(=O)NC[C@H]1Cn2ccnc2CO1 -0.563% [at 77.1 µM]

By substructure: the entries above containing a tert-butyl group
Activity % (negative = inhibition), inactive:
CC(C)Cc1cnc(C2CCCN(C(=O)OC(C)(C)C)C2)[nH]1 (stereo unspecified) -4.47% [at 57.5 µM]
COCCn1nc2n(c1=O)CCC1(CC2)CCN(C(=O)CC(C)(C)C)CC1 8.77%

At a glance, 2 of the compounds above:
Activity % (negative = inhibition), inactive:
CSc1ccccc1C(=O)N1CCN(C(C)=O)CC(O)C1 (stereo unspecified) 6.41%
Cn1c(CN2CCN3C(=O)NC[C@H]3C2)nc2ccccc21 0.7% [at 77.1 µM]
